The list shows a part of the results.

B1: il10ra_site1_normal_mot_HHH_b2_00622_af2_000000153_0001_40_57_H_._HHH_b1_08750_0001_0000200006_0000001_1_af2pred_0001 (protein)
chain: SSSSSSEEAERLLRILIRAAKQIEDPELRKLSLRAALASAEATGDEELLEEIRQLLEELNSSSSS
B2: il10ra_site1_normal_mot_HHH_b2_03220_af2_000000223_0001_23_40_H_._HHH_b1_07482_0001_0000100005_0000001_0 (protein)
chain: SSSSTEEAEEVWELLREALELREKDPEEARRLVEEAEEIAEEANNENLEFVIRFLLRDINSSSSS
B3: il10ra_site1_sap_22_mot_HHH_b1_07211_af2_000000161_0001_24_40_H_._HHH_b1_07393_0001_0000300023_0000002_0_0001 (protein)
chain: SSSSDASDELYKLSKEALQLEHEGNPEEARRVLEEAEELAEEAGNMVALVNLRYLLERLNSSSSS
B4: il10ra_site1_normal_mot_8756ee2cf497b5429c717dfc0c0bcfd6_0001_000000186_0001_1_13_H_._HHH_b1_03926_0001_0000400036_0000001_0 (protein)
chain: SSSSDEVERIMELLRRASELDLEGNPEEAEELVEEALELARENNNDVLRAQAEYLLRIVRSSSSS
B5: il10ra_site1_sap_23_mot_HHH_b1_01821_000000158_0001_23_39_H_._ems_p1-15H-GBL-16H-GABBL-16H_0381_0001_0001_0002_0001_0000300011_0000003_0_0001 (protein)
chain: SSSSDEAYEFLEEVIKELIELAREGDEEEFEKLVREAERYLEELGNRMTLLSLRSAAEMLSSSSS
B6: il10ra_site1_normal_mot_HHH_b2_01310_000000089_0001_41_55_H_._HHH_b1_07197_af2_0001_0000200008_0000001_0 (protein)
chain: SSSSSEVEERVEQLLKEAEELIEEGDDERVVQLLQEAVRFAFEASNPELLRAVFEVAKLLNSSSS
B7: il10ra_site1_normal_mot_HHH_b2_04680_000000215_0001_1_16_H_._HHH_b2_06378_af2_0001_0000100001_0000001_0 (protein)
chain: SSSSSDEETRKAYRLLREAFEIEDPEEAHKVAEEALEIAEEGGNFVLAWAIRHLLKDLNSSSSSS
B8: il10ra_site1_normal_mot_812af5c65f29141b25d3ed263bec1fb2_0001_1_000000083_0001_36_50_H_._HHH_b2_03332_0001_0000400030_0000001_0_af2pred_0001 (protein)
chain: SSSSSDEEVEEEVERLLEEAKEIDDPEEAVELLVEAARLAYEANDPELLQLVAKVAKELSSSSSS
B9: il10ra_site1_normal_mot_HHH_b1_05357_000000034_0001_23_39_H_._HHH_b2_00878_af2_0001_0000100001_0000001_0_af2pred_0001 (protein)
chain: SSSSSSDLEEEVEKLLEEAEKIEDQLRLAYVLTRAYAVANRLNDPELRELIREVAKKLSSSSSSS
B10: il10ra_site1_sap_23_mot_HHH_b2_07145_000000158_0001_24_40_H_._HHH_b1_07925_af2_0001_0000300024_0000001_0_0001 (protein)
chain: SSSSTVLERSVRVAEEVAKELLEAGDPEAARELLEILLRLLREAGNEELVEELERLLEEIRSSSS
B11: il10ra_site1_sap_10_mot_HHH_b2_05343_000000235_0001_19_35_H_._HHH_b2_05720_0001_0000200027_0000001_0_0001 (protein)
chain: SSSSSDEEERVEELLEEAKEIEDHEERIRVLFEAIHLAIQLQDPELLRLVWEVFRKLAGSSSSSS
B12: il10ra_site1_sap_15_mot_HHH_b1_06994_000000193_0001_40_55_H_._HHH_b1_06779_0001_0000200020_0000002_0_0001 (protein)
chain: SSSSDEAVQEVAELAMEVSRALFRGDRERVEELLERMEELAREANNPAAELLVEIVESALESSSS
B13: il10ra_site1_sap_15_mot_HHH_b1_01347_af2_000000067_0001_42_56_H_._HHH_b1_02043_0001_0000100009_0000001_0_0001 (protein)
chain: SSSSSEMEEYAEIAARFAENAAKSGNPKLARRILERAEEALRHANDEEALELIEELLEELSSSSS
B14: il10ra_site1_sap_15_mot_HHH_b1_07380_000000129_0001_1_20_H_._HHH_b2_04671_0001_0000100002_0000001_0_0001 (protein)
chain: SSSSSDNEEVYRLSKEAAELMADGDEEEAKRVLEEAEELAEELGSRILLKILRFLLRSLNSSSSS
B15: il10ra_site1_normal_mot_HHH_b1_00682_000000211_0001_1_20_H_._HHH_b2_03488_0001_0000200013_0000001_0_af2pred_dldesign_0_af2pred (protein)
chain: SSSSSSPEVRKEVEDLLERAKKEEDPDKRLALLRRAVELAGEAEDPELQARVREVARELISSSSS
B16: il10ra_site1_normal_mot_HHH_b1_06994_000000193_0001_40_55_H_._HHH_b2_02446_0001_0000300038_0000001_0 (protein)
chain: SSSSDLEELVEAALRFAEQAYRHGDPRAVRRRLEALLQLLKADNDEELLEEVEEFLRELESSSSS
B17: il10ra_site1_sap_20_mot_HHH_b2_07579_000000275_0001_1_19_H_._HHH_b2_07036_0001_0000200009_0000001_0_0001 (protein)
chain: SSSSSDAQEEALRLVLKALRLLLRGNPEEARELLEEAEELAREAGDERLLEMIENLLKTNSSSSS
B18: il10ra_site1_sap_16_mot_HHH_b1_00665_000000097_0001_23_39_H_._HHH_b1_03692_0001_0000100017_0000001_0_0001_af2pred_0001 (protein)
chain: SSSSTEEFKRVEELAREALELYKEGDREKAREILEEAEEIAEELGDIVLLWLVRSLLERLKSSSS
B19: il10ra_site1_sap_14_mot_HHH_b2_01379_000000044_0001_42_56_H_._HHH_b2_05904_0001_0000200016_0000001_0_0001 (protein)
chain: SSSSDERREVYELSRRAAEAHSEGNPEEARELLEEAEELAEKVNNRNMLAVLEAMKRLINSSSSS

In this experiment the target is il10ra, Q13651. The experiment can be described thus: yeast display titration.
As for B1, the “apparent Kd” value was “inactive: no binding seen”.

With B2, the “apparent Kd” value was “inactive: no binding seen”.

As for B3, the “apparent Kd” value was “inactive: no binding seen”.

On to B4, for which the “apparent Kd” value was “inactive: no binding seen”.

Take B5: the “apparent Kd” value is “inactive: no binding seen”.

Take B6: the “apparent Kd” value was “inactive: no binding seen”.

As to B7, the “apparent Kd” value was “inactive: no binding seen”.

For the molecule B8, the “apparent Kd” value is “inactive: no binding seen”.

Regarding B9, the “apparent Kd” value is “inactive: no binding seen”.

For the molecule B10, the “apparent Kd” value was “inactive: no binding seen”.

As for B11, the “apparent Kd” value was “inactive: no binding seen”.

On to B12, for which the “apparent Kd” value is “inactive: no binding seen”.

For the molecule B13, the “apparent Kd” value is “inactive: no binding seen”.

In the case of B14, the “apparent Kd” value is “inactive: no binding seen”.

B15: the “apparent Kd” value was “inactive: no binding seen”.

With B16, the apparent Kd is inactive: > 1.12 µM.

With B17, the “apparent Kd” value was “inactive: no binding seen”.

As for B18, the “apparent Kd” value is “inactive: no binding seen”.

Regarding B19, the “apparent Kd” value is “inactive: no binding seen”.

The term apparent Kd denotes the concentration giving half-maximal binding under the conditions of the assay.

The values are drawn from article PMC10163288.
